This note sets out measurements from US20260266848A1, “COMPOSITIONS AND METHODS FOR DIAGNOSING AND TREATING DYSTONIA” (Duke University, priority 2023, published 2026).

The data set deals with DYT1 patient plasma derived EVs. Nature of the data set: Plasma-derived EV proteomics (ExoQuick ULTRA, DIA LC/MS/MS), DYT1 vs Healthy Controls. More on the design: species or system human. To be noted: for Log2_FC: protein level, human patient derived EVs by genotype; for Mean DYT1 / Mean HC: protein abundance; for Mean DYT1: DYT1 patients; for Mean HC: healthy controls (HC). As to the method:
Data was obtained for extracellular vesicles using previously acquired samples. The ExoQuick® ULTRA EV Isolation System was used to fractionate and enrich EVs from plasma. Isolated plasma EV samples were then submitted to proteomic analysis by the Duke Proteomics and Metabolomics Core Facility (DPMCF). At the DPMCF, quantitative (LC/MS/MS) was performed on 500 ng of each sample, using an EvoSep One UPLC system coupled to a Thermo Orbitrap Astral high-resolution accurate mass tandem mass spectrometer (Thermo). Briefly, the sample was eluted directly from an Evotip which was subjected to a low organic wash and then subjected to an analytical separation using a 1.7 μm EvoSep 150 um ID×15 cm endurance (EveoSep) column running an SPD30 gradient from approximately 5 to 30% acetonitrile with 0.1% formic acid with a column temperature of 50 C. Data collection on the Orbitrap Astral mass spectrometer was performed in a data-independent acquisition (DIA) mode of acquisition with a r=240,000 (@m/z 200) full MS scan from m/z 380-980 with a target AGC value of 4e5 ions. Fixed DIA, windows of 4 m/z from m/z 380 to 980 DIA MS/MS scans were acquired in the Astral with a target AGC value of 5e4 and a max fill time of 6 ms. HCD collision energy setting of 27% was used for all MS2 scans.

B1: PRPSAP2 (protein, UniProt O60256 1-369, looked up)
Phosphoribosyl pyrophosphate …: MFCVTPPELETKMNITKGGLVLFSANSNSSCMELSKKIAERLGVEMGKVQVYQEPNRETRVQIQESVRGKDVFIIQTVSKDVNTTIMELLIMVYACKTSCAKSIIGVIPYFPYSKQCKMRKRGSIVSKLLASMMCKAGLTHLITMDLHQKEIQGFFNIPVDNLRASPFLLQYIQEEIPDYRNAVIVAKSPASAKRAQSFAERLRLGIAVIHGEAQDAESDLVDGRHSPPMVRSVAAIHPSLEIPMLIPKEKPPITVVGDVGGRIAIIVDDIIDDVDSFLAAAETLKERGAYKIFVMATHGLLSSDAPRRIEESAIDEVVVTNTIPHEVQKLQCPKIKTVDISMILSEAIRRIHNGESMSYLFRNIGLDD
In the case of B1, the “Mean DYT1” value is recorded as 2.595 and the “Mean HC” value is given as 3.70. Also, where the note is “Hs. Plasma EVs (DYT1/WT)”, the Directionality entry is recorded as “DOWN” and the Log2_FC is -1.105. Also, where the note is “directionality of protein change, human plasma derived EVs, DYT1 vs WT(HC)”, the “Hs. Plasma EVs (DYT1/WT)” value is “DOWN”.

B2: LORICRIN (protein, UniProt P23490 1-312, looked up)
Loricrin: MSYQKKQPTPQPPVDCVKTSGGGGGGGGSGGGGCGFFGGGGSGGGSSGSGCGYSGGGGYSGGGCGGGSSGGGGGGGIGGCGGGSGGSVKYSGGGGSSGGGSGCFSSGGGGSGCFSSGGGGSSGGGSGCFSSGGGGSSGGGSGCFSSGGGGFSGQAVQCQSYGGVSSGGSSGGGSGCFSSGGGGGSVCGYSGGGSGCGGGSSGGSGSGYVSSQQVTQTSCAPQPSYGGGSSGGGGSGGSGCFSSGGGGGSSGCGGGSSGIGSGCIISGGGSVCGGGSSGGGGGGSSVGGSGSGKGVPICHQTQQKQAPTWPSK
Consider B2, for which the “Mean DYT1” value was 6.295 and the “Mean HC” value is 7.19.

B3: WFDC12 (protein, UniProt Q8WWY7 24-111, looked up)
WAP four-disulfide core …: VKEGIEKAGVCPADNVRCFKSDPPQCHTDQDCLGERKCCYLHCGFKCVIPVKELEEGGNKDEDVSRPYPEPGWEAKCPGSSSTRCPQK
In the case of B3, the “Mean DYT1” value is recorded as 4.356 and the “Mean HC” value is recorded as 5.90. The same molecule yielded a Log2FC (DYT1 patients as compared to healthy controls) of −1.5491.

B4: FAM131C (protein, UniProt Q96AQ9 1-280, looked up)
Protein FAM131C: MGSCVSRDLFTSAHKNCPMPQGADPLNPDLPSGRTPTVAPDCVIGKDKQMDFCWDPWQRCFQTTNGYLSDSRSRPGNYNVAALATSSLVGVVQSIKDHITKPTAMARGRVAHLIEWKGWSAQPAGWELSPAEDEHYCCLPDELREARFAAGVAEQFAITEATLSAWSSLDEEELHPENSPQGIVQLQDLESIYLQDSLPSGPSQDDSLQAFSSPSPSPDSCPSPEEPPSTAGIPQPPSPELQHRRRLPGAQGPEGGTHPPGSLPSMDSGSLWEEDEVFYN
Consider B4, for which the “Mean DYT1” value is recorded as 4.777 and the “Mean HC” value was 2.56.

B5: SLC2A1 (protein, UniProt P11166 1-492, looked up)
Solute carrier family 2, …: MEPSSKKLTGRLMLAVGGAVLGSLQFGYNTGVINAPQKVIEEFYNQTWVHRYGESILPTTLTTLWSLSVAIFSVGGMIGSFSVGLFVNRFGRRNSMLMMNLLAFVSAVLMGFSKLGKSFEMLILGRFIIGVYCGLTTGFVPMYVGEVSPTALRGALGTLHQLGIVVGILIAQVFGLDSIMGNKDLWPLLLSIIFIPALLQCIVLPFCPESPRFLLINRNEENRAKSVLKKLRGTADVTHDLQEMKEESRQMMREKKVTILELFRSPAYRQPILIAVVLQLSQQLSGINAVFYYSTSIFEKAGVQQPVYATIGSGIVNTAFTVVSLFVVERAGRRTLHLIGLAGMAGCAILMTIALALLEQLPWMSYLSIVAIFGFVAFFEVGPGPIPWFIVAELFSQGPRPAAIAVAGFSNWTSNFIVGMCFQYVEQLCGPYVFIIFTVLLVLFFIFTYFKVPETKGRTFDEIASGFRQGGASQSDKTPEELFHPLGADSQV
Take B5: the “Mean DYT1” value was 7.183 and the “Mean HC” value is 6.11. For the same molecule, the Log2_FC (Hs. Plasma EVs (DYT1/WT)) is reported as 1.076.
